Data from the supplement of paper PMC4604168 (melanoma cell lines).
The other results are listed elsewhere or left out. Single values are uncertain, as repeats are few or missing.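 Imaging used 1,536-well plates; nuclei positive for cleaved PARP by antibody were divided by total DNA-stained nuclei to yield the apoptosis fraction. Doses for screening kept most cells viable, and cell lines differ markedly in resting and induced cleaved-PARP levels.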

tested on: SkMel5; assay: cleaved PARP positive nuclei fraction relative to DMSO control; melanoma cells; higher = more apoptosis; settings: library dose: low library concentration; 72 h

| SMILES | cleaved PARP positive nuclei fraction [%] |
| --- | --- |
| CCc1ccc(CCOc2ccc(CC3SC(=O)NC3=O)cc2)nc1 (stereo unspecified) [pioglitazone] + CCCCCCCCCCCC1=C(O)C(=O)C=C(O)C1=O [Embelin] (first compound 2 µM, partner dose 1.2 µM) | 116 |
| CN(C)S(=O)(=O)c1ccc2c(c1)/C(=C/c1cc3c([nH]1)CCCC3)C(=O)N2 + c1cc(-c2cnn3cc(-c4ccc(OCCN5CCCCC5)cc4)cnc23)ccn1 [Dorsomorphin] (first compound 0.4 µM, partner dose 0.4 µM) | 269 |
| O=C(Nc1ccccc1)c1cc([N+](=O)[O-])ccc1Cl + O=c1cc(-c2cccc3c2Sc2ccccc2S3)oc(N2CCOCC2)c1 [KU55933] (first compound 2 µM, partner dose 1 µM) | 37 |
| COc1cc2ncnc(Nc3ccc(Oc4ccccc4)cc3)c2cc1OC + O=C(O)C(=O)Nc1sc2c(c1C(=O)O)CCNC2 [TCS401] (first compound 2 µM, partner dose 1.66667 µM) | 32.5 |
| COc1ccc(-c2ccc3c(N4CCOCC4)nc(N4C[C@@H](C)O[C@@H](C)C4)nc3n2)cc1CO + Oc1nc(-c2ccc(C(F)(F)F)cc2)nc2c1CSCC2 [XAV939] (first compound 0.02 µM, partner dose 2 µM) | 101 |
| CN(NC(=O)CC(=O)NN(C)C(=S)c1ccccc1)C(=S)c1ccccc1 + CCc1ccc(CCOc2ccc(CC3SC(=O)NC3=O)cc2)nc1 [pioglitazone] (first compound 0.006 µM, partner dose 2 µM) | 132 |
| CCc1ccc(CCOc2ccc(CC3SC(=O)NC3=O)cc2)nc1 (stereo unspecified) [pioglitazone] + Cc1cc([N+](=O)[O-])ccc1NS(=O)(=O)c1cc(Cl)ccc1Cl [FH535] (first compound 2 µM, partner dose 1 µM) | 35.4 |
| CCN(CC)CCCCNc1ncc2cc(-c3cc(OC)cc(OC)c3)c(NC(=O)NC(C)(C)C)nc2n1 + O=c1cc(-c2cccc3c2Sc2ccccc2S3)oc(N2CCOCC2)c1 [KU55933] (first compound 0.1 µM, partner dose 1 µM) | 53.4 |
| COc1ccc(COc2ccc(Cc3cnc(N)nc3N)cc2OC)cc1 + O=C1NC(=O)/C(=C/c2ccc(-c3ccc(F)cc3O)o2)S1 [AS252424] (first compound 1 µM, partner dose 1 µM) | 104 |
| Oc1cc(-c2nc(-c3ccccc3)[nH]c2-c2ccncc2)ccc1Cl + Cn1cc(/C=C2\C(=O)Nc3cccnc32)c2ccccc21 [GW441756] (first compound 0.2 µM, partner dose 0.4 µM) | 83.4 |
| NCC(=O)Nc1ccc(-n2nc(C(F)(F)F)cc2-c2ccc3c(ccc4ccccc43)c2)cc1 + Oc1cc(-c2nc(-c3ccccc3)[nH]c2-c2ccncc2)ccc1Cl [L779450] (first compound 1 µM, partner dose 0.2 µM) | 60.7 |
| O=S(=O)(c1ccccc1)N(CC(F)(F)F)c1ccc(C(O)(C(F)(F)F)C(F)(F)F)cc1 + CC(C)CCN1c2nc(Nc3cc(F)c(O)c(F)c3)ncc2N(C)C(=O)C1C [BID1870] (first compound 1.4 µM, partner dose 0.2 µM) | 77.8 |
| Cn1cc(/C=C2\C(=O)Nc3cccnc32)c2ccccc21 + CC(C)CCN1c2nc(Nc3cc(F)c(O)c(F)c3)ncc2N(C)C(=O)C1C [BID1870] (first compound 0.4 µM, partner dose 0.2 µM) | 84.9 |
| O=C1NC(=O)/C(=C/c2ccc(-c3ccc(F)cc3O)o2)S1 + COc1cc(N2CCC(N3CCN(C)CC3)CC2)ccc1Nc1ncc(Cl)c(Nc2ccccc2S(=O)(=O)C(C)C)n1 [NVP-TAE684] (first compound 1 µM, partner dose 0.08 µM) | 64 |
| N#Cc1c(O)c2c(-c3ccc(-c4ccccc4O)cc3)csc2[nH]c1=O + CCN(CC)CCCCNc1ncc2cc(-c3cc(OC)cc(OC)c3)c(NC(=O)NC(C)(C)C)nc2n1 [PD173074] (first compound 2 µM, partner dose 0.1 µM) | 87.6 |
| CN(C)S(=O)(=O)c1ccc2c(c1)/C(=C/c1cc3c([nH]1)CCCC3)C(=O)N2 + COc1ccc2c(c1)CCC1C2CCC2(C)C(NCCCCCCN3C(=O)C=CC3=O)CCC12 [U73122] (first compound 0.4 µM, partner dose 0.4 µM) | 39.1 |
| Oc1cc(-c2nc(-c3ccccc3)[nH]c2-c2ccncc2)ccc1Cl + c1cc(-c2cnn3cc(-c4ccc(OCCN5CCCCC5)cc4)cnc23)ccn1 [Dorsomorphin] (first compound 0.2 µM, partner dose 0.4 µM) | 70.3 |
| Oc1nc(-c2ccc(C(F)(F)F)cc2)nc2c1CSCC2 + CCCCCCCCCCCC1=C(O)C(=O)C=C(O)C1=O [Embelin] (first compound 2 µM, partner dose 1.2 µM) | 40.7 |

Part of the list above in another layout:
SMILES	cleaved PARP positive nuclei fraction [%]
CCc1ccc(CCOc2ccc(CC3SC(=O)NC3=O)cc2)nc1 (stereo unspecified) [pioglitazone] + CCCCCCCCCCCC1=C(O)C(=O)C=C(O)C1=O [Embelin] (first compound 2 µM, partner dose 1.2 µM)	116
N#Cc1c(O)c2c(-c3ccc(-c4ccccc4O)cc3)csc2[nH]c1=O + CCN(CC)CCCCNc1ncc2cc(-c3cc(OC)cc(OC)c3)c(NC(=O)NC(C)(C)C)nc2n1 [PD173074] (first compound 2 µM, partner dose 0.1 µM)	87.6

Next part

| SMILES | cleaved PARP positive nuclei fraction [%] |
| --- | --- |
| CN(C)S(=O)(=O)c1ccc2c(c1)/C(=C/c1cc3c([nH]1)CCCC3)C(=O)N2 + CCN(CC)CCCCNc1ncc2cc(-c3cc(OC)cc(OC)c3)c(NC(=O)NC(C)(C)C)nc2n1 [PD173074] (first compound 0.4 µM, partner dose 0.1 µM) | 37.4 |
| COc1ccc(-c2ccc3c(N4CCOCC4)nc(N4C[C@@H](C)O[C@@H](C)C4)nc3n2)cc1CO + O=c1cc(-c2cccc3c2Sc2ccccc2S3)oc(N2CCOCC2)c1 [KU55933] (first compound 0.02 µM, partner dose 1 µM) | 38.5 |
| NCC(=O)Nc1ccc(-n2nc(C(F)(F)F)cc2-c2ccc3c(ccc4ccccc43)c2)cc1 + Cn1cc(/C=C2\C(=O)Nc3cccnc32)c2ccccc21 [GW441756] (first compound 1 µM, partner dose 0.4 µM) | 78.4 |
| COc1ccc(-c2ccc3c(N4CCOCC4)nc(N4C[C@@H](C)O[C@@H](C)C4)nc3n2)cc1CO + CC(C)CCN1c2nc(Nc3cc(F)c(O)c(F)c3)ncc2N(C)C(=O)C1C [BID1870] (first compound 0.02 µM, partner dose 0.2 µM) | 65.7 |
| CCN(CC)CCCCNc1ncc2cc(-c3cc(OC)cc(OC)c3)c(NC(=O)NC(C)(C)C)nc2n1 + Cc1cc([N+](=O)[O-])ccc1NS(=O)(=O)c1cc(Cl)ccc1Cl [FH535] (first compound 0.1 µM, partner dose 1 µM) | 316 |
| COc1cc2c(Oc3ccc4[nH]c(C)cc4c3F)ncnc2cc1OCCCN1CCCC1 [cediranib] + CCN(CC)CCCCNc1ncc2cc(-c3cc(OC)cc(OC)c3)c(NC(=O)NC(C)(C)C)nc2n1 [PD173074] (first compound 0.4 µM, partner dose 0.1 µM) | 53 |
| O=C(O)c1ccc(-c2c[nH]c3ncc(-c4ccccc4)cc23)cc1C1CCCC1 + Cn1cc(/C=C2\C(=O)Nc3cccnc32)c2ccccc21 [GW441756] (first compound 0.16 µM, partner dose 0.4 µM) | 92.9 |
| O=C(O)c1ccc(-c2c[nH]c3ncc(-c4ccccc4)cc23)cc1C1CCCC1 + Oc1nc(-c2ccc(C(F)(F)F)cc2)nc2c1CSCC2 [XAV939] (first compound 0.16 µM, partner dose 2 µM) | 111 |
| N#Cc1c(O)c2c(-c3ccc(-c4ccccc4O)cc3)csc2[nH]c1=O + COc1cc(N2CCC(N3CCN(C)CC3)CC2)ccc1Nc1ncc(Cl)c(Nc2ccccc2S(=O)(=O)C(C)C)n1 [NVP-TAE684] (first compound 2 µM, partner dose 0.08 µM) | 150 |
| Oc1cc(-c2nc(-c3ccccc3)[nH]c2-c2ccncc2)ccc1Cl + COc1cc(N2CCC(N3CCN(C)CC3)CC2)ccc1Nc1ncc(Cl)c(Nc2ccccc2S(=O)(=O)C(C)C)n1 [NVP-TAE684] (first compound 0.2 µM, partner dose 0.08 µM) | 79.4 |
| COc1ccc2c(c1)CCC1C2CCC2(C)C(NCCCCCCN3C(=O)C=CC3=O)CCC12 (stereo unspecified) + Oc1cc(-c2nc(-c3ccccc3)[nH]c2-c2ccncc2)ccc1Cl [L779450] (first compound 0.4 µM, partner dose 0.2 µM) | 26.1 |
| COc1cc2c(Oc3ccc4[nH]c(C)cc4c3F)ncnc2cc1OCCCN1CCCC1 [cediranib] + Oc1cc(-c2nc(-c3ccccc3)[nH]c2-c2ccncc2)ccc1Cl [L779450] (first compound 0.4 µM, partner dose 0.2 µM) | 90.1 |
| O=S(=O)(c1ccccc1)N(CC(F)(F)F)c1ccc(C(O)(C(F)(F)F)C(F)(F)F)cc1 + Cn1cc(/C=C2\C(=O)Nc3cccnc32)c2ccccc21 [GW441756] (first compound 1.4 µM, partner dose 0.4 µM) | 94.8 |
| N#Cc1c(O)c2c(-c3ccc(-c4ccccc4O)cc3)csc2[nH]c1=O + CC(C)CCN1c2nc(Nc3cc(F)c(O)c(F)c3)ncc2N(C)C(=O)C1C [BID1870] (first compound 2 µM, partner dose 0.2 µM) | 79.3 |
| O=S(=O)(c1ccccc1)N(CC(F)(F)F)c1ccc(C(O)(C(F)(F)F)C(F)(F)F)cc1 + Oc1cc(-c2nc(-c3ccccc3)[nH]c2-c2ccncc2)ccc1Cl [L779450] (first compound 1.4 µM, partner dose 0.2 µM) | 325 |
| CN(NC(=O)CC(=O)NN(C)C(=S)c1ccccc1)C(=S)c1ccccc1 + COC(=O)c1sccc1S(=O)(=O)Nc1ccc(Nc2ccccc2)cc1OC [GSK0660] (first compound 0.006 µM, partner dose 1 µM) | 402 |
| COc1cc2c(Oc3ccc4[nH]c(C)cc4c3F)ncnc2cc1OCCCN1CCCC1 [cediranib] + O=C(O)C(=O)Nc1sc2c(c1C(=O)O)CCNC2 [TCS401] (first compound 0.4 µM, partner dose 1.66667 µM) | 59 |
| COC(=O)c1sccc1S(=O)(=O)Nc1ccc(Nc2ccccc2)cc1OC + CCCCCCCCCCCC1=C(O)C(=O)C=C(O)C1=O [Embelin] (first compound 1 µM, partner dose 1.2 µM) | 111 |
